Here are results for 38 molecules from article PMC12670160, “A drug-repurposing screen of FDA- and EMA-approved drugs identifies two NF-κB inhibitors active against eumycetoma” (Journal of Antimicrobial Chemotherapy, 2025).

The structures appear in SMILES notation. Where a name gives a salt, the structure may show the parent alone. In all, about 5,300 compounds went through this assay and about 130 (2.5%) showed an effect of 50% or more. Some of the results follow. Peptide text beside a SMILES is read from it.

The test concerns M. mycetomatis strain mm55. To be noted: primary screen, metabolic activity vs growth control; 96 h, 2 µM; inhibitor.
Regarding `CC(C)(C(=O)c1cccnc1)c1cccnc1` [ONC0005447, metyrapone], the “% viability” value is recorded as 124.1%.
Next, `COC(=O)Nc1ccc(-c2nc(N3CCOCC3)c3cnn(C4CCN(Cc5cccnc5)CC4)c3n2)cc1` [ONC0001643, wye687]: 107.7%; `Nc1ncn([C@H]2C[C@H](O)[C@@H](CO)O2)c(=O)n1` [ONC0003115, decitabine]: 79.17%; `CC(C)(CC(=O)N1CCCC1)NCC(=O)N1C[C@@H](F)C[C@H]1C#N` [ONC0001034, dbpr108]: 85.05%.
As to `O=c1cc(-c2ccc(O)c(O)c2)oc2cc(O)cc(O)c12` [ONC0005074, luteolin], the “% viability” value was found to be 90.55%.
Regarding `CCC(CC)O[C@@H]1C=C(C(=O)O)C[C@H](N)[C@H]1NC(C)=O` [ONC0001288, oseltamivir acid], the “% viability” value turned out to be 79.28%.
Next, `CCOc1cc(C(=O)N2CCC(N3CCN(C)CC3)CC2)ccc1Nc1ncc2c(n1)N(C1CCCC1)c1ccccc1C(=O)N2C` [ONC0001309, xmd17109]: 139.2%; `O=C(NOCCO)c1ccc2cncn2c1Nc1ccc(I)cc1F` [ONC0005172, gdc0623]: 115.8%; `CC(=O)Nc1ccc(NC(=S)NC(=O)c2ccc(C(C)(C)C)cc2)cc1` [ONC0005205, tenovin1]: 158.2%.
Next, `C[C@H](NC(=O)[C@@H](O)c1cc(F)cc(F)c1)C(=O)N[C@@H]1C(=O)N(C)c2ccccc2-c2ccccc21` [ONC0005268, ly411575]: 105.9%; `CCCC(=O)O` [ONC0004805, sodium butyrate]: 67.66%; `CN1CCN(C2=Cc3ccccc3Oc3ccc(Cl)cc32)CC1` [ONC0004301, 2cmdo]: 90.35%.
Consider `C[C@]12CC[C@@H]3c4ccc(O)cc4CC[C@H]3[C@@H]1CC[C@@H]2OC(=O)CCC1CCCC1` [ONC0000738, estradiol cypionate], for which the “% viability” value is given as 84.11%.
Next, `CC(O)CC(=O)O` (centres unmarked) [ONC0003511, betahydroxybutyrate]: 60.8%; `CC(C)N(CCCNC(=O)Nc1ccc(C(C)(C)C)cc1)C[C@H]1O[C@@H](n2ccc3c(N)ncnc32)[C@H](O)[C@@H]1O` [ONC0004328, epz004777]: 126.4%.
Next, `CN1CCc2cccc3c2[C@H]1Cc1ccc(O)c(O)c1-3` [ONC0005471, apomorphine hydrochloride]: 91.2%; `C[C@H](NC(=O)Cc1cc(F)cc(F)c1)C(=O)N[C@H](C(=O)OC(C)(C)C)c1ccccc1` [ONC0003591, dapt]: 109.9%.
For `O=C(O)C=C(CC(=O)O)C(=O)O` [ONC0003760, cisaconiticacid] the value was 93.51%.
As to `NCC(=O)N[C@@H](CCC(N)=O)C(=O)O` [ONC0003608, s5amino22aminoacetamido5oxopentanoic acid] (H-Gly-Gln-OH), the “% viability” value is recorded as 104.9%.
Next, `CCC(NC(C)C)C(O)c1ccc(O)c(O)c1` (centres unmarked) [ONC0004032, isoetharine mesylate]: 90.3%; `C/C(=N\NC(=O)C(NC(=O)c1ccccc1)c1n[nH]c(=O)c2ccccc12)c1cccc(Br)c1` (centres unmarked) [ONC0001013, ac55541]: 89.73%; `CCC(Cc1c(I)cc(I)c(N)c1I)C(=O)O` (centres unmarked) [ONC0002312, iopanic acid]: 101.4%.
For `Cc1cc(Nc2ccc(NC(=O)c3ccc(Nc4ccnc5ccccc45)cc3)cc2)nc(N)n1` [ONC0005027, sgi1027] the value was 80.8%.
For `COC(=O)c1cc2c(C(F)(F)F)cc(-c3ccccc3)cc2n1O` [ONC0003580, nhi2] the value was 99.99%.
As for `CN1C2=CC(=O)/C(=N\NC(N)=O)C=C2CC1S(=O)(=O)O` (centres unmarked) [ONC0004540, carbazochrome sodium sulfonate], the “% viability” value turned out to be 67.82%.
As for `COc1ccc(OC)c(C(O)C(C)N)c1` (centres unmarked) [ONC0000444, methoxamine hydrochloride], the “% viability” value was determined as 88.05%.
With `O=c1cc(N2CCOCC2)oc2c1ccc1ccccc12` [ONC0002057, nu 7026], the “% viability” value turned out to be 73.75%.
Consider `C[C@@H]1[C@H](O)[C@@H](C)/C=C/C=C/C=C/C=C/C=C/C=C/C=C/[C@H](O[C@@H]2O[C@H](C)[C@@H](O)[C@H](N)[C@@H]2O)C[C@@H]2O[C@](O)(C[C@@H](O)C[C@@H](O)[C@H](O)CC[C@@H](O)C[C@@H](O)CC(=O)O[C@H]1C)C[C@H](O)[C@H]2C(=O)O` [amphotericin B], for which the “% viability” value came out at 95.43%.
For `CCOc1cncc(/C=C/CCNC)c1` [ONC0001241, tc2559 fumarate] the value was 114.6%.
Next, `COc1ccc2[nH]c(I)c(CCNC(C)=O)c2c1` [ONC0000040, 2iodomelatonin]: 94.63%; `CCOC(=O)c1cc2ccc(O)cc2oc1=O` [ONC0000162, yz9]: 106.5%.
On to `CO[C@@]1(NC(=O)CSCC#N)C(=O)N2C(C(=O)O)=C(CSc3nnnn3C)CS[C@@H]21` [ONC0000659, cefmetazole sodium], for which the “% viability” value is 84.29%.
Next, `CCC[C@@H]1C[C@@H](C(=O)N[C@@H]([C@H]2O[C@H](SC)[C@H](O)[C@@H](O)[C@@H]2O)[C@@H](C)O)N(C)C1` [ONC0000511, lincomycin hydrochloride]: 95.69%.
On to `O=C(O)CCCCN(CCc1ccccc1OCc1ccc(CCc2ccccc2)cc1)Cc1ccc(C(=O)O)cc1` [ONC0000830, cinaciguat], for which the “% viability” value worked out at 70.66%.
Next, `CC(=O)OCC1=C(C(=O)O)N2C(=O)[C@@H](N)[C@H]2SC1` [ONC0004514, 7aminocephalosporanic acid]: 52.68%.
Next, `CCCN(CCC)C(=O)C(CCC(=O)O)NC(=O)c1ccccc1` (centres unmarked) [ONC0000651, proglumide sodium]: 101.2%; `C/C=C1\NC(=O)[C@H]2CSSCC/C=C/[C@H](CC(=O)N[C@H](C(C)C)C(=O)N2)OC(=O)[C@H](C(C)C)NC1=O` [ONC0000722, romidepsin]: 49.6%.
Next, `COc1ccc2c(c1)N(C[C@H](C)CN(C)C)c1ccccc1S2` [ONC0005616, levomepromazine]: 72.59%.
